PubChem BioAssay AID1159578, Peter MacCallum Cancer Centre | 2015

Test: 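siRNA pools altering how lymphatic endothelial cells close a scratch wound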 (primary screen)
Cell system: human lymphatic endothelial cells
Reagents: siRNA pool against human genes, 40 nM
Duration: 48 h after transfection
Measured: 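Cells stained with dye and imaged after a scratch; covered wound area and nuclei counted, duplicates averaged, migration set against mock wells and turned into a robust z-score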
Scale: migration robust z-score: higher = faster migration into the scratch; migration relative to mock: higher = more scratch area covered than mock; nuclei per well: higher = more cells in the well
Rule for the call: 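Migration changed when robust z exceeds 2 or falls below -2 and mean nuclei number is at least 3300; otherwise not called changed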
Meaning of the calls: active = migration changed; inactive = no migration change, or too few cells
Shown is a random part of about 18,000 reagents. In the full data, about 1,030 (5.7%) are marked active. 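Inactive calls also include pools with fewer than 3300 nuclei, whose migration was not assessed.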 Raw values are not corrected between plates.

Gene	migration robust z-score	migration class with cell-count check	migration relative to mock	nuclei per well, duplicate mean	call
RPP38 (GeneID 10557)	-0.44	migration z between -2 and 2; enough cells	0.77	5810	inactive
STK11IP (GeneID 114790)	3.96	migration z above 2; enough cells	1.92	6888	active
MAGEA5P (GeneID 4104)	2.06	migration z above 2; enough cells	1.42	5430	active
RGS1 (GeneID 5996)	-0.3	migration z between -2 and 2; enough cells	0.8	4334	inactive
KIF16B (GeneID 55614)	0.18	migration z between -2 and 2; enough cells	0.84	5640	inactive
RXRG (GeneID 6258)	0.29	migration z between -2 and 2; enough cells	0.86	5436	inactive
SIGLEC12 (GeneID 89858)	0.65	migration z between -2 and 2; enough cells	1.06	5725	inactive
IRAG2 (GeneID 4033)	0.14	migration z between -2 and 2; enough cells	0.92	6076	inactive
CRLS1 (GeneID 54675)	0.88	migration z between -2 and 2; enough cells	0.98	6568	inactive
EIF1B (GeneID 10289)	1.21	migration z between -2 and 2; enough cells	1.19	6399	inactive
GALK2 (GeneID 2585)	-2.31	under 3300 nuclei; migration not judged	0.36	3263	inactive
SLC13A2 (GeneID 9058)	-0.44	migration z between -2 and 2; enough cells	0.72	3870	inactive
PFDN5 (GeneID 5204)	0.26	migration z between -2 and 2; enough cells	0.86	5548	inactive
FAAP100 (GeneID 80233)	-0.36	migration z between -2 and 2; enough cells	0.78	7319	inactive
SDHB (GeneID 6390)	0.8	migration z between -2 and 2; enough cells	0.96	6537	inactive
EPB41L1 (GeneID 2036)	0.29	migration z between -2 and 2; enough cells	0.86	5105	inactive
LMX1A (GeneID 4009)	-0.34	migration z between -2 and 2; enough cells	0.74	4740	inactive
MT1H (GeneID 4496)	1.46	migration z between -2 and 2; enough cells	1.27	6240	inactive
MLKL (GeneID 197259)	-1.14	migration z between -2 and 2; enough cells	0.58	3723	inactive
ZMYM5 (GeneID 9205)	1.25	migration z between -2 and 2; enough cells	1.21	6046	inactive
CMKLR2 (GeneID 2825)	0.86	migration z between -2 and 2; enough cells	0.97	5636	inactive
JMJD4 (GeneID 65094)	0.87	migration z between -2 and 2; enough cells	1.1	6698	inactive
CD34 (GeneID 947)	-0.39	migration z between -2 and 2; enough cells	0.78	5937	inactive
EPHA6 (GeneID 285220)	-2.36	migration z below -2; enough cells	0.35	4648	active
TP53RK (GeneID 112858)	-1.68	migration z between -2 and 2; enough cells	0.48	3545	inactive
NELFB (GeneID 25920)	-1.23	migration z between -2 and 2; enough cells	0.56	3710	inactive
KLF7 (GeneID 8609)	-0.2	migration z between -2 and 2; enough cells	0.76	4450	inactive
TMSB4X (GeneID 7114)	1.97	migration z between -2 and 2; enough cells	1.4	6746	inactive
PPIA (GeneID 5478)	3.55	migration z above 2; enough cells	1.49	5470	active
OR4D6 (GeneID 219983)	-0.39	migration z between -2 and 2; enough cells	0.78	5348	inactive
SLC9D1 (GeneID 55002)	-1.39	migration z between -2 and 2; enough cells	0.53	6383	inactive
MPIG6B (GeneID 80739)	-0.56	migration z between -2 and 2; enough cells	0.74	5676	inactive
CYP2F1 (GeneID 1572)	1.06	migration z between -2 and 2; enough cells	1.01	7158	inactive
BRME1 (GeneID 79173)	1.48	migration z between -2 and 2; enough cells	1.27	6694	inactive
PLAT (GeneID 5327)	-0.29	migration z between -2 and 2; enough cells	0.75	6042	inactive
KLC3 (GeneID 147700)	0.32	migration z between -2 and 2; enough cells	0.97	6714	inactive
OIP5 (GeneID 11339)	-0.09	migration z between -2 and 2; enough cells	0.86	5794	inactive
SIX5 (GeneID 147912)	-0.7	migration z between -2 and 2; enough cells	0.7	4996	inactive
IFNW1 (GeneID 3467)	-0.2	migration z between -2 and 2; enough cells	0.84	5688	inactive
FFAR2 (GeneID 2867)	0.86	migration z between -2 and 2; enough cells	0.97	5270	inactive
SLC39A14 (GeneID 23516)	1.1	migration z between -2 and 2; enough cells	1.17	5567	inactive
ZNF485 (GeneID 220992)	0.43	migration z between -2 and 2; enough cells	1	6990	inactive
PTCH1 (GeneID 5727)	-0.2	migration z between -2 and 2; enough cells	0.76	4550	inactive
MASTL (GeneID 84930)	-0.28	migration z between -2 and 2; enough cells	0.75	3810	inactive
PARM1 (GeneID 25849)	-0.16	migration z between -2 and 2; enough cells	0.84	5450	inactive
OR10A2 (GeneID 341276)	-1.58	migration z between -2 and 2; enough cells	0.48	5404	inactive
PLPP6 (GeneID 403313)	-0.24	migration z between -2 and 2; enough cells	0.76	3852	inactive
CLINT1 (GeneID 9685)	1.25	migration z between -2 and 2; enough cells	1.21	6976	inactive
ZNF701 (GeneID 55762)	-0.11	migration z between -2 and 2; enough cells	0.86	6515	inactive
PKHD1L1 (GeneID 93035)	-1.4	migration z between -2 and 2; enough cells	0.52	5267	inactive
ABCG2 (GeneID 9429)	-0.13	migration z between -2 and 2; enough cells	0.78	6976	inactive
PEX11B (GeneID 8799)	-0.62	migration z between -2 and 2; enough cells	0.72	5507	inactive
RHBDD1 (GeneID 84236)	-0.39	migration z between -2 and 2; enough cells	0.78	5992	inactive
SKI (GeneID 6497)	0.41	migration z between -2 and 2; enough cells	0.99	6206	inactive
RHO (GeneID 6010)	0.28	migration z between -2 and 2; enough cells	0.86	6948	inactive
BFAR (GeneID 51283)	0.99	migration z between -2 and 2; enough cells	1	6511	inactive
TMC2 (GeneID 117532)	-0.49	migration z between -2 and 2; enough cells	0.76	5779	inactive
HMGA2 (GeneID 8091)	-1.31	migration z between -2 and 2; enough cells	0.54	4132	inactive
AMZ2 (GeneID 51321)	-0.1	migration z between -2 and 2; enough cells	0.86	6244	inactive
RAB15 (GeneID 376267)	0.2	migration z between -2 and 2; enough cells	0.94	4700	inactive
RAET1L (GeneID 154064)	0.24	migration z between -2 and 2; enough cells	0.95	6158	inactive
WT1-AS (GeneID 51352)	-0.24	migration z between -2 and 2; enough cells	0.82	6254	inactive
DPY30 (GeneID 84661)	-0.47	migration z between -2 and 2; enough cells	0.76	7091	inactive
RIGI (GeneID 23586)	-0.2	migration z between -2 and 2; enough cells	0.76	4374	inactive
CTTNBP2NL (GeneID 55917)	-1.69	under 3300 nuclei; migration not judged	0.44	1748	inactive
RUVBL1 (GeneID 8607)	0.96	migration z between -2 and 2; enough cells	0.99	6311	inactive
OR5F1 (GeneID 338674)	-1.3	migration z between -2 and 2; enough cells	0.54	5416	inactive
SULT4A1 (GeneID 25830)	-1.09	migration z between -2 and 2; enough cells	0.6	5590	inactive
STRIP2 (GeneID 57464)	-1.72	migration z between -2 and 2; enough cells	0.44	5355	inactive
OPRM1 (GeneID 4988)	-0.6	migration z between -2 and 2; enough cells	0.69	7906	inactive
TSPAN31 (GeneID 6302)	-0.12	migration z between -2 and 2; enough cells	0.85	6501	inactive
CROCC (GeneID 9696)	-0.15	migration z between -2 and 2; enough cells	0.84	5002	inactive
PDE12 (GeneID 201626)	2.66	migration z above 2; enough cells	1.57	6866	active

An excerpt from above, showing only “migration class with cell-count check”.
EPB41L1 (GeneID 2036) = migration z between -2 and 2; enough cells
LMX1A (GeneID 4009) = migration z between -2 and 2; enough cells
MT1H (GeneID 4496) = migration z between -2 and 2; enough cells
MLKL (GeneID 197259) = migration z between -2 and 2; enough cells
ZMYM5 (GeneID 9205) = migration z between -2 and 2; enough cells
CMKLR2 (GeneID 2825) = migration z between -2 and 2; enough cells
JMJD4 (GeneID 65094) = migration z between -2 and 2; enough cells
CD34 (GeneID 947) = migration z between -2 and 2; enough cells
EPHA6 (GeneID 285220) = migration z below -2; enough cells
TP53RK (GeneID 112858) = migration z between -2 and 2; enough cells
